Results from patent US20210308065A1, “REMOTE MODULATION OF BICONTINUOUS NANOSPHERES FOR CONTROLLED DELIVERY APPLICATIONS” (Northwestern University, priority 2020, published 2021).

Tested on: RAW 264.7 cells
Test: Subcellular localization and retention of free or BCN-encapsulated FITC-BSA (confocal microscopy)
Type: cell-based, murine

FITC-BSA: fluorescein-tagged bovine serum albumin
Integrated density of fluorescent signal from cells (4 h time point): higher at the early 4 h time point compared to FITC-BSA BCNs
Integrated density of fluorescent signal from cells (48 h): significantly lower than the FITC-BSA BCN signal at 48 h
Intracellular fluorescence intensity of FITC-BSA punctae over time (RAW 264.7 cells, after 4-h incubation, confocal): decreased in intensity over the course of 48 h
